# Assay results as given in the supplement of paper PMC8728848.
# Some of the results follow.
# B1: HA-61200 (Pseudomonas aeruginosa), Q02SP8_PSEAB (protein)
# chain: MNKCYALVWNVSQGCWNVVSEGSRRRGKPAGAKAAIASVLALLGATALAPAYALPSGGTVVGGSANGEIHLSGGNSLSVNQKVDKLIANWDSFSVAAGERVIFNQPSSSSIALNRVIGTKASDIQGRIDANGQVFLVNPNGVLFGRGAQVNVGGLVASTLDITDAEFNGNSSRYRFTGPSTNGVLNHGGAITAAEGGSIALLGAQVDNRGTVLAQMGGVGLGAGSDLTLNFDGNKLLDIRVDAGVANALASNGGLLKADGGRVLMAARTANALLNTVVNSQGAIEARSLRGKNGRIVLDG
# Legend:
# Assay in all cases: glycan array binding signal (z-score within array); higher = stronger binding
# Settings in all cases: glycan notation: IUPAC condensed, linker removed
# Neu5Ac(a2-3)Gal = biological target: Neu5Ac(a2-3)Gal
# Summary of the method: (§1)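 Glycan array data were curated from 3228 arrays in the Consortium for Functional Glycomics database and kept only where the protein sequence was available. Glycan names were converted to IUPAC-condensed notation, and columns mapping to the same glycan were averaged. The binding signal is a within-array Z-score, averaged across arrays of the same protein sequence at different concentrations or buffers and across linkers. Negative Z-scores can be read as non-binding.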
# [1] = biological target: Neu5Ac(a2-3)Gal(b1-3)GalNAc
# Summary of the method: as §1
# [2] = biological target: Neu5Ac(a2-3)Gal(b1-3)GalNAc(b1-3)Gal(a1-4)Gal(b1-4)Glc
# Summary of the method: as §1
# [3] = biological target: Neu5Ac(a2-3)Gal(b1-3)GalNAc(b1-4)Gal(b1-4)Glc
# Summary of the method: as §1
# [4] = biological target: Neu5Ac(a2-3)Gal(b1-3)GalNAc(b1-4)[Neu5Ac(a2-3)]Gal(b1-4)Glc
# Summary of the method: as §1
# [5] = biological target: Neu5Ac(a2-3)Gal(b1-3)GalNAc(b1-4)[Neu5Ac(a2-8)Neu5Ac(a2-3)]Gal(b1-4)Glc
# Summary of the method: as §1
# [6] = biological target: Neu5Ac(a2-3)Gal(b1-3)GalNAc6S
# Summary of the method: as §1
# [7] = biological target: Neu5Ac(a2-3)Gal(b1-3)GlcNAc
# Summary of the method: as §1
# [8] = biological target: Neu5Ac(a2-3)Gal(b1-3)GlcNAc(b1-2)Man
# Summary of the method: as §1
# [9] = biological target: Neu5Ac(a2-3)Gal(b1-3)GlcNAc(b1-2)Man(a1-3)[GlcNAc(b1-4)][Neu5Ac(a2-3)Gal(b1-3)GlcNAc(b1-2)Man(a1-6)]Man(b1-4)GlcNAc(b1-4)GlcNAc
# Summary of the method: as §1
# [10] = biological target: Neu5Ac(a2-3)Gal(b1-3)GlcNAc(b1-2)Man(a1-3)[Neu5Ac(a2-3)Gal(b1-3)GlcNAc(b1-2)Man(a1-6)]Man(b1-4)GlcNAc(b1-4)GlcNAc
# Summary of the method: as §1
# [11] = biological target: Neu5Ac(a2-3)Gal(b1-3)GlcNAc(b1-2)[Neu5Ac(a2-3)Gal(b1-3)GlcNAc(b1-4)]Man(a1-6)[Neu5Ac(a2-3)Gal(b1-3)GlcNAc(b1-2)Man(a1-3)]Man(b1-4)GlcNAc(b1-4)GlcNAc
# Summary of the method: as §1
# [12] = biological target: Neu5Ac(a2-3)Gal(b1-3)GlcNAc(b1-3)Gal(b1-3)GlcNAc
# Summary of the method: as §1
# [13] = biological target: Neu5Ac(a2-3)Gal(b1-3)GlcNAc(b1-3)Gal(b1-4)GlcNAc
# Summary of the method: as §1
# [14] = biological target: Neu5Ac(a2-3)Gal(b1-3)GlcNAc(b1-3)GalNAc
# Summary of the method: as §1
# [15] = biological target: Neu5Ac(a2-3)Gal(b1-3)GlcNAc(b1-6)GalNAc
# Summary of the method: as §1
# [16] = biological target: Neu5Ac(a2-3)Gal(b1-3)GlcNAc6S
# Summary of the method: as §1
# [17] = biological target: Neu5Ac(a2-3)Gal(b1-3)[Fuc(a1-4)]GlcNAc
# Summary of the method: as §1
# [18] = biological target: Neu5Ac(a2-3)Gal(b1-3)[Fuc(a1-4)]GlcNAc(b1-3)Gal(b1-3)[Fuc(a1-4)]GlcNAc
# Summary of the method: as §1
# [19] = biological target: Neu5Ac(a2-3)Gal(b1-3)[Fuc(a1-4)]GlcNAc(b1-3)Gal(b1-4)[Fuc(a1-3)]GlcNAc
# Summary of the method: as §1
# [20] = biological target: Neu5Ac(a2-3)Gal(b1-3)[GlcNAc(b1-6)]GalNAc
# Summary of the method: as §1
# [21] = biological target: Neu5Ac(a2-3)Gal(b1-3)[Neu5Ac(a2-6)]GalNAc
# Summary of the method: as §1
# [22] = biological target: Neu5Ac(a2-3)Gal(b1-3)[Neu5Ac(a2-6)]GlcNAc(b1-3)[Fuc(a1-3)[Gal(b1-4)]GlcNAc(b1-6)]Gal(b1-4)Glc
# Summary of the method: as §1
# [23] = biological target: Neu5Ac(a2-3)Gal(b1-3)]Neu5Ac(a2-3)Gal(b1-4)]GlcNAc
# Summary of the method: as §1
# Neu5Ac(a2-3)Gal(b1-4)Glc = biological target: Neu5Ac(a2-3)Gal(b1-4)Glc
# Summary of the method: as §1
# [24] = biological target: Neu5Ac(a2-3)Gal(b1-4)GlcNAc
# Summary of the method: as §1
# [25] = biological target: Neu5Ac(a2-3)Gal(b1-4)GlcNAc(b1-2)Man
# Summary of the method: as §1
# [26] = biological target: Neu5Ac(a2-3)Gal(b1-4)GlcNAc(b1-2)Man(a1-3)[GlcNAc(b1-4)][Neu5Ac(a2-3)Gal(b1-4)GlcNAc(b1-2)Man(a1-6)]Man(b1-4)GlcNAc(b1-4)GlcNAc
# Summary of the method: as §1
# [27] = biological target: Neu5Ac(a2-3)Gal(b1-4)GlcNAc(b1-2)Man(a1-3)[Neu5Ac(a2-3)Gal(b1-4)GlcNAc(b1-2)Man(a1-6)]Man(b1-4)GlcNAc(b1-4)GlcNAc
# Summary of the method: as §1
# [28] = biological target: Neu5Ac(a2-3)Gal(b1-4)GlcNAc(b1-2)Man(a1-3)[Neu5Ac(a2-3)Gal(b1-4)GlcNAc(b1-2)Man(a1-6)]Man(b1-4)GlcNAc(b1-4)[Fuc(a1-6)]GlcNAc
# Summary of the method: as §1
# [29] = biological target: Neu5Ac(a2-3)Gal(b1-4)GlcNAc(b1-2)Man(a1-3)[Neu5Ac(a2-6)Gal(b1-4)GlcNAc(b1-2)Man(a1-6)]Man(b1-4)GlcNAc(b1-4)GlcNAc
# Summary of the method: as §1
# [30] = biological target: Neu5Ac(a2-3)Gal(b1-4)GlcNAc(b1-2)[Neu5Ac(a2-3)Gal(b1-4)GlcNAc(b1-4)]Man(a1-3)[GlcNAc(b1-4)][Neu5Ac(a2-3)Gal(b1-4)GlcNAc(b1-2)[Neu5Ac(a2-3)Gal(b1-4)GlcNAc(b1-6)]Man(a1-6)]Man(b1-4)GlcNAc(b1-4)GlcNAc
# Summary of the method: as §1
# [31] = biological target: Neu5Ac(a2-3)Gal(b1-4)GlcNAc(b1-2)[Neu5Ac(a2-3)Gal(b1-4)GlcNAc(b1-4)]Man(a1-3)[GlcNAc(b1-4)][Neu5Ac(a2-3)Gal(b1-4)GlcNAc(b1-4)Man(a1-6)]Man(b1-4)GlcNAc(b1-4)GlcNAc
# Summary of the method: as §1
# [32] = biological target: Neu5Ac(a2-3)Gal(b1-4)GlcNAc(b1-2)[Neu5Ac(a2-3)Gal(b1-4)GlcNAc(b1-6)]Man(a1-6)[Neu5Ac(a2-3)Gal(b1-4)GlcNAc(b1-2)Man(a1-3)][GlcNAc(b1-4)]Man(b1-4)GlcNAc(b1-4)GlcNAc
# Summary of the method: as §1
# [33] = biological target: Neu5Ac(a2-3)Gal(b1-4)GlcNAc(b1-3)Gal
# Summary of the method: as §1
# [34] = biological target: Neu5Ac(a2-3)Gal(b1-4)GlcNAc(b1-3)Gal(b1-3)GlcNAc
# Summary of the method: as §1
# [35] = biological target: Neu5Ac(a2-3)Gal(b1-4)GlcNAc(b1-3)Gal(b1-4)GlcNAc
# Summary of the method: as §1
binder,measurement,setting,value
B1,glycan array binding signal (z-score),Neu5Ac(a2-3)Gal,-0.698
same,glycan array binding signal (z-score),[1],-1
same,glycan array binding signal (z-score),[2],-0.529
same,glycan array binding signal (z-score),[3],-0.132
same,glycan array binding signal (z-score),[4],-0.582
same,glycan array binding signal (z-score),[5],-0.261
same,glycan array binding signal (z-score),[6],-0.771
same,glycan array binding signal (z-score),[7],0.042
same,glycan array binding signal (z-score),[8],-0.191
same,glycan array binding signal (z-score),[9],-0.143
same,glycan array binding signal (z-score),[10],0.145
same,glycan array binding signal (z-score),[11],0.786
same,glycan array binding signal (z-score),[12],-0.404
same,glycan array binding signal (z-score),[13],-0.144
same,glycan array binding signal (z-score),[14],0.333
same,glycan array binding signal (z-score),[15],0.347
same,glycan array binding signal (z-score),[16],-0.444
same,glycan array binding signal (z-score),[17],-0.695
same,glycan array binding signal (z-score),[18],0.278
same,glycan array binding signal (z-score),[19],-0.831
same,glycan array binding signal (z-score),[20],0.057
same,glycan array binding signal (z-score),[21],-0.092
same,glycan array binding signal (z-score),[22],0.927
same,glycan array binding signal (z-score),[23],-0.247
same,glycan array binding signal (z-score),Neu5Ac(a2-3)Gal(b1-4)Glc,0.217
same,glycan array binding signal (z-score),[24],-0.476
same,glycan array binding signal (z-score),[25],-0.247
same,glycan array binding signal (z-score),[26],-0.29
same,glycan array binding signal (z-score),[27],-0.003
same,glycan array binding signal (z-score),[28],0.873
same,glycan array binding signal (z-score),[29],-0.276
same,glycan array binding signal (z-score),[30],0.298
same,glycan array binding signal (z-score),[31],-0.405
same,glycan array binding signal (z-score),[32],-0.137
same,glycan array binding signal (z-score),[33],-0.852
same,glycan array binding signal (z-score),[34],-0.215
same,glycan array binding signal (z-score),[35],0.479

# Fetched one by one from the list above:
binder,measurement,setting,value
B1,glycan array binding signal (z-score),[17],-0.695
same,glycan array binding signal (z-score),[6],-0.771
